# From PubChem BioAssay AID248 (DTP/NCI, 2004)
# The list shows only some results of the screen, not a fair sample: it gathers tests that were run many times, whatever their T/C, doses with no T/C, and many T/C values between a quarter and a half above the control. Further doses and runs are listed elsewhere. T/C is the treated group as % of the vehicle group. Some doses have a count of surviving animals in place of a T/C: the source holds a T/C of zero for them, seemingly a mark for toxic or unscored doses. Some survivor counts are full or nearly so, which does not show that the dose was tolerated: the source hardly ever lists a survival T/C far under the control, and the zero likely stands for such cases as well. Counts of survivors are from the toxicity check (mostly the fifth day) where no day follows; animals may have died later. Schedule codes are those of the source, read here as Q, the interval in days (D) or hours (H), X, the number of doses. Some schedules carry Z or #; the key to these is not given. Where survival is the endpoint, this PubChem deposit counts one and a half times the control or more as active, and values a quarter to a half above the control carry no call in these data; other NCI protocols may use other cut-offs. Some T/C values carry the count of animals alive at the toxicity check (mostly the fifth day); without a count, all were alive then. Some doses were run more than once; their values stand side by side, smallest first.
# Tested on: L1210 leukemia ip in BDF1 mice, survival T/C
# Assay: NCI In Vivo Anticancer Drug Screen. Data for tumor model L1210 Leukemia (intraperitoneal) in B6D2F1 (BDF1) mice
# Details: T/C endpoint: mean survival time, higher T/C = longer survival
# [1] = dose: 200.0 mg/kg/injection, schedule: Q01DX009 (ip), vehicle: saline with Tween-80
# [2] = dose: 400.0 mg/kg/injection, schedule: Q01DX009 (ip), vehicle: saline with Tween-80
# [3] = dose: 400.0 mg/kg/injection, schedule: Q01DX001 (ip), vehicle: carboxymethylcellulose (CMC)
# [4] = dose: 400.0 mg/kg/injection, schedule: Q01DX009 (ip), vehicle: Klucel (hydroxypropylcellulose) (HPC)
# [5] = dose: 100.0 mg/kg/injection, schedule: Q01DX009 (ip), vehicle: saline
# [6] = dose: 400.0 mg/kg/injection, schedule: Q04DX003 (ip), vehicle: saline
# [7] = dose: 200.0 mg/kg/injection, schedule: Q01DX009 (ip), vehicle: Klucel (hydroxypropylcellulose) (HPC)
# [8] = dose: 400.0 mg/kg/injection, schedule: Q04DX003 (ip), vehicle: Klucel (hydroxypropylcellulose) (HPC)
# [9] = dose: 100.0 mg/kg/injection, schedule: Q01DX009 (ip), vehicle: Klucel (hydroxypropylcellulose) (HPC)
# [10] = dose: 100.0 mg/kg/injection, schedule: Q01DX009 (ip), vehicle: carboxymethylcellulose (CMC)
# [11] = dose: 100.0 mg/kg/injection, schedule: Q01DX001 (ip), vehicle: saline
# [12] = dose: 200.0 mg/kg/injection, schedule: Q01DX001 (ip), vehicle: saline
structure (smiles),measurement,setting,value
COc1ccc(O)c(C=O)c1,T/C,[1],125 % of control [4 of 6 alive]
same,survivor count,[2],2 of 6
c1cc2ccc3ccc[n+]4c3c2[n+](c1)CC4,survivor count,"dose: 150.0 mg/kg/injection, schedule: Q01DX001 (ip), vehicle: saline",2 of 6
same,survivor count,"dose: 300.0 mg/kg/injection, schedule: Q01DX001 (ip), vehicle: saline",0 of 6
c1ccc2nc(OCCN3CC3)ccc2c1,survivor count,"dose: 200.0 mg/kg/injection, schedule: Q01DX001 (ip), vehicle: carboxymethylcellulose (CMC)",2 of 6
same,survivor count,[3],0 of 6
NC(N)=N/N=C/c1c[nH]c2ccc(OCc3ccccc3)cc12,survivor count,"dose: 60.0 mg/kg/injection, schedule: Q01DX Z (ip), vehicle: methylcellulose (MC)",1 of 6
same,survivor count,"dose: 60.0 mg/kg/injection, schedule: Q01DX Z (oral), vehicle: methylcellulose (MC)",0 of 6
same,survivor count,"dose: 120.0 mg/kg/injection, schedule: Q01DX Z (ip), vehicle: methylcellulose (MC)",0 of 6
same,survivor count,"dose: 120.0 mg/kg/injection, schedule: Q01DX Z (oral), vehicle: methylcellulose (MC)",1 of 6
CC(Oc1cc(Cl)c(Cl)cc1Cl)C(=O)ON(C)C (configuration not stated),survivor count,[4],0 of 6
O=C(O)/C(=C\c1ccc(Cl)cc1)c1ccc(Cl)cc1,survivor count,[4],6 of 6
CCCCC=C1CC(C)CC(C)C1 (configuration not stated),survivor count,[1],3 of 3
O=C(Nc1ccc(C2=NCCCCN2)cc1)c1ccc(C(=O)Nc2ccc(C3=NCCCCN3)cc2)c(Cl)c1,survivor count,"dose: 1.0 mg/kg/injection, schedule: Q01DX015 (ip), vehicle: water",3 of 6
same,survivor count,"dose: 2.0 mg/kg/injection, schedule: Q01DX015 (ip), vehicle: water",1 of 6
same,survivor count,"dose: 4.0 mg/kg/injection, schedule: Q01DX015 (ip), vehicle: water",1 of 6
same,survivor count,"dose: 8.0 mg/kg/injection, schedule: Q01DX Z (ip), vehicle: water",0 of 6
same,survivor count,"dose: 16.0 mg/kg/injection, schedule: Q01DX Z (ip), vehicle: water",0 of 6
same,survivor count,"dose: 32.0 mg/kg/injection, schedule: Q01DX Z (ip), vehicle: water",0 of 6
O=C(O)C(Cl)Cl,survivor count,"dose: 25.0 mg/kg/injection, schedule: Q01DX009 (ip), vehicle: saline",6 of 6
same,survivor count,"dose: 50.0 mg/kg/injection, schedule: Q01DX009 (ip), vehicle: saline",6 of 6
same,survivor count,[5],5 of 6
same,survivor count,[6],4 of 6
Cc1cc([N+](=O)[O-])cc([N+](=O)[O-])c1Cl,survivor count,[7],0 of 6
same,survivor count,[8],0 of 6
CCOC(=O)C1C(=O)NCC1c1ccccc1 (configuration not stated),survivor count,[5],3 of 3
c1ccc2c(c1)nnn1c3ccccc3nc21,survivor count,"dose: 100.0 mg/kg/injection, schedule: Q01DX001 (ip), vehicle: other",6 of 6
CCCCCC(=O)N(CCCC)CCCC,survivor count,"dose: 400.0 mg/kg/injection, schedule: Q01DX009 (ip), vehicle: carboxymethylcellulose (CMC)",2 of 3
CCCOc1ccc(C2=NCC(C)S2)c(C)c1 (configuration not stated),survivor count,[9],3 of 3
same,survivor count,[7],3 of 3
same,survivor count,"dose: 400.0 mg/kg/injection, schedule: Q01DX005 (ip), vehicle: Klucel (hydroxypropylcellulose) (HPC)",2 of 3
CCN=C(c1ccc(NC(=O)c2ccc(C(=O)Nc3ccc(C(=NCC)N(CC)CC)cc3)cc2)cc1)N(CC)CC,survivor count,"dose: 3.75 mg/kg/injection, schedule: Q01DX Z (ip), vehicle: carboxymethylcellulose (CMC)",0 of 6
same,survivor count,"dose: 7.5 mg/kg/injection, schedule: Q01DX Z (ip), vehicle: carboxymethylcellulose (CMC)",0 of 6
same,survivor count,"dose: 15.0 mg/kg/injection, schedule: Q01DX Z (ip), vehicle: carboxymethylcellulose (CMC)",0 of 6
same,survivor count,"dose: 30.0 mg/kg/injection, schedule: Q01DX Z (ip), vehicle: carboxymethylcellulose (CMC)",0 of 6
same,survivor count,"dose: 60.0 mg/kg/injection, schedule: Q01DX Z (ip), vehicle: carboxymethylcellulose (CMC)",0 of 6
same,survivor count,"dose: 120.0 mg/kg/injection, schedule: Q01DX Z (ip), vehicle: carboxymethylcellulose (CMC)",0 of 6
CC(=O)OC1CCC2(C)C(CCC3C2CC(OC(C)=O)C2(C)C3CCC2C2(C)SCCS2)C1 (configuration not stated),survivor count,"dose: 200.0 mg/kg/injection, schedule: Q04DX002 (ip), vehicle: Klucel (hydroxypropylcellulose) (HPC)",3 of 3
CCCCCCCCCCCCCC(=O)N(CCCC)CCCC,T/C,[10],"96, 97, 97 % of control [2 of 3 alive]"
same,survivor count,[10],0 of 6
same,T/C,"dose: 200.0 mg/kg/injection, schedule: Q01DX009 (ip), vehicle: carboxymethylcellulose (CMC)","93, 95, 96, 103 % of control"
Nc1nc2ncc(CNc3ccc(C(=O)NC(CCC(=O)O)C(=O)O)cn3)nc2c(=O)[nH]1 (configuration not stated),T/C,"dose: 50.0 mg/kg/injection, schedule: Q01DX009 (ip), vehicle: saline with Tween-80",130 % of control
same,T/C,"dose: 62.5 mg/kg/injection, schedule: Q01DX009 (ip), vehicle: saline with Tween-80",130 % of control
same,T/C,"dose: 75.0 mg/kg/injection, schedule: Q01DX009 (ip), vehicle: saline with Tween-80",139 % of control [5 of 6 alive]
COc1ccc(NC(=S)NC(=O)COc2ccccc2)cc1,survivor count,[1],2 of 3
same,survivor count,[2],1 of 6
same,survivor count,"dose: 400.0 mg/kg/injection, schedule: Q04DX002 (ip), vehicle: saline with Tween-80",1 of 3
O=C(NCCCN1CCOCC1)C(Oc1ccccc1)Oc1ccccc1,survivor count,[9],6 of 6
O=C(O)C1C2C=Cc3ccccc3C21 (configuration not stated),survivor count,[11],3 of 3
same,survivor count,[12],3 of 3
[CH3][Pb]([CH3])([CH3])[O]P(=O)(O)c1ccccc1,survivor count,"dose: 25.0 mg/kg/injection, schedule: Q04DX002 (ip), vehicle: saline",3 of 3
same,survivor count,"dose: 50.0 mg/kg/injection, schedule: Q04DX002 (ip), vehicle: saline",0 of 3
same,survivor count,"dose: 100.0 mg/kg/injection, schedule: Q04DX002 (ip), vehicle: saline",0 of 3
same,survivor count,"dose: 200.0 mg/kg/injection, schedule: Q04DX002 (ip), vehicle: saline",0 of 3
same,survivor count,"dose: 400.0 mg/kg/injection, schedule: Q04DX002 (ip), vehicle: saline",0 of 3
Cc1nc2c(N)nnc(N)c2nc1C,survivor count,[7],1 of 6
same,survivor count,[4],0 of 6
NCC(=O)c1ccc(-c2ccccc2)cc1,survivor count,[6],2 of 6
C(=N\C(/N=C/c1ccccc1)c1ccccc1)/c1ccccc1,survivor count,"dose: 100.0 mg/kg/injection, schedule: Q04DX003 (ip), vehicle: Klucel (hydroxypropylcellulose) (HPC)",6 of 6
same,survivor count,"dose: 200.0 mg/kg/injection, schedule: Q04DX003 (ip), vehicle: Klucel (hydroxypropylcellulose) (HPC)",6 of 6
same,survivor count,[8],6 of 6
CC1=NCCN1CCNC(=O)c1ccc(C(=O)NCCN2CCN=C2C)cc1,survivor count,"dose: 20.0 mg/kg/injection, schedule: Q01DX001 (ip), vehicle: saline",0 of 6
same,survivor count,"dose: 40.0 mg/kg/injection, schedule: Q01DX001 (ip), vehicle: saline",0 of 6
same,survivor count,"dose: 80.0 mg/kg/injection, schedule: Q01DX001 (ip), vehicle: saline",0 of 6
same,survivor count,[11],0 of 6
same,survivor count,[12],0 of 6
same,survivor count,"dose: 400.0 mg/kg/injection, schedule: Q01DX001 (ip), vehicle: saline",0 of 6
CCCCCCCCCCCCOP(N)(=O)OCCCCCCCCCCCC,survivor count,[6],3 of 6
O=C(/C=C\c1ccc(O)cc1)c1ccccc1,survivor count,[8],6 of 6
NC(=O)c1ncn(C2OC(CO)C(O)C2O)c1C(N)=O (configuration not stated),survivor count,[3],2 of 4
CCCCCCCCCCCC(=O)Nc1cc(C)ccc1N=Nc1ccc(C)cc1,survivor count,[9],6 of 6
same,survivor count,[7],6 of 6
